Measurements: the supplement of paper PMC12819154, “High-throughput peptide-centric local stability assay extends protein–ligand identification to membrane proteins, tissues and bacteria” (Nature Structural & Molecular Biology, 2025)
The list shows a part of the results, in another mix than the full data. Most values lie at the level of the controls, where differences are scatter.

Target: T1, UniProt P0A9I3
T1 sequence (whole entry): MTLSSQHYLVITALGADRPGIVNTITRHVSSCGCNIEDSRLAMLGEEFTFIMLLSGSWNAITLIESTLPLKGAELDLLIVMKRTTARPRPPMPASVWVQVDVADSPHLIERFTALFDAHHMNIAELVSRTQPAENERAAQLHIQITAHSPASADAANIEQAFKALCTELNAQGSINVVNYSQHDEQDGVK
Experiment: log2 fold change of tryptic peptide abundance, ligand vs vehicle (limited proteolysis) (log2 ratio); higher = more trypsin-susceptible (destabilized)
Conditions: peptide sequence: TQPAENER; peptide start residue: 130; ligand concentration: 5 mM; sample: E. coli desalted lysate; replicate design: treated before aliquoting
Protocol: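 HT-PELSA: desalted E. coli K-12 BW25113 lysate (with 12 mM MgCl2) incubated with 5 mM ATP (pH 7) or water for 30 min at 25 C, then a 4 min trypsin pulse at 22 C. Peptides were quantified by DIA-MS (4 replicates). Value is the peptide log2 fold change (treated/control); negative = stabilized. Scale: negative = ligand-stabilized region.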
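Also: lysate desalted by size exclusion to strip endogenous ATP, peptide intensities built from DIA-NN precursor signals, and peptides missing any value discarded before comparison.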

`Nc1ncnc2c1ncn2[C@@H]1O[C@H](COP(=O)(O)OP(=O)(O)OP(=O)(O)O)[C@@H](O)[C@H]1O` [adenosine 5'-triphosphate] was tested. Which log2 fold change did it give?
The log2 fold change was -0.285.
